From patent US20250011484A1, “METHODS FOR PREPARING METALLOCENE COMPOUNDS” (Chevron Phillips Chemical Company LP, priority 2023, published 2025)

Experiment: Metallocene-catalyzed oligomerization of 1-decene
Settings: 110° C.
Protocol: Metallocene-catalyzed oligomerizations were performed using MET-A and MET-D as follows. Generally, 1-decene was oligomerized to an oligomer product of dimers, trimers, and tetramers in the presence of MET-A or MET-D, as noted in Table II below. For Examples 8-9, a 1-gallon batch reactor was charged with 675 g of 1-decene. A syringe was charged with CTSO (0.750 g), TIBA (1.3 mL of a 1.0 M hexane solution), and metallocene (5 mg). The chemically treated solid oxide (CTSO) was a fluorided silica-coated alumina (60:40 alumina:silica by weight) containing 4 wt. % F and having a d50 average particle size of 35 microns, a BET surface area of 450 m^2/g, and a pore volume of 1.1 mL/g. The catalyst mixture was shaken to mix and was then charged to the reactor under a nitrogen purge. The reactor was heated to 110° C. while stirring at 600-900 rpm. Once the reactor temperature reached setpoint, 633 mg of hydrogen was charged to the reactor. After 1 hour, the reactor was cooled to 35° C. A solution of 10% HCl in isopropyl alcohol (10 mL total charge) was added and the reactor contents were removed.
The reaction mixture was then filtered and analyzed by gas chromatography to determine the yield of oligomer product formed in the reaction mixture, and to determine the relative amount of certain oligomers within the oligomer product (e.g., the trimer:tetramer weight ratio).
Gas chromatographic (GC) analyses were performed using a split injection method on a Bruker 430-GC gas chromatograph with a flame ionization detector (FID). Initial oven temperature was 70° C. for 2 minutes and increased 5° C./min to 290° C. and held for 7 minutes. The column was an all-purpose capillary column (Agilent J&W VF-5 ms, 30 m×0.25 mm×0.25 μm). Data analysis was performed using CompassCDS software.
The distribution of olefin end groups was determined using ^1H NMR on a Bruker 300 MHz NMR. Spectra were recorded in CDCl3 and are reported relative to SiMe4 as determined by reference to the residual ^1H solvent peak. Integration of the following chemical shift ranges were used to determine the relative amounts of olefin end group: Vinylidene: 4.55-4.75 ppm, Trisubstituted: 4.95-5.15 ppm, Internal: 5.20-5.45 ppm.

[1] = olefin end groups of dimer by 1H NMR

Fc1c(F)c(F)c(C[c-]2ccc3ccccc32)c(F)c1F.[Cl-].[Cl-].[Zr+4].c1cc[cH-]c1 (stereo not drawn) [MET-A]
Dimer % internal [1]: 6.3% | Dimer % trisubstituted [1]: 20.7% | Dimer % vinylidene [1]: 73.0% | Dimer (mol %) Total (oligomer product by GC, 1 hour): 62.3 mol % | Tetramer (oligomer product by GC, 1 hour): 11.8 mol % | Trimer (oligomer product by GC, 1 hour): 25.8 mol %
